# Laboratory results reported in patent US20060252749A1, “Lacosamide for add-on therapy of psychosis” (SRZ Properties, Inc., priority 2005, published 2006).
# At least one compound was matched to its structure with a doubt left.
# System: C57BL/6J mice
# Assay: Prepulse inhibition (PPI) of the acoustic startle reflex in mice
# Format: in vivo
# Details: clozapine 3 mg/kg alone, p<0.05
# Source text: Chow and water were provided ad libitum for the duration of the study.
# Responses were sampled every ms. The inter-trial interval was variable with an average of 15 s (range from 10 to 20 s).
structure (smiles),measurement,value
CN1CCN(C2=Nc3cc(Cl)ccc3Nc3ccccc32)CC1 [clozapine],Effect on prepulse inhibition in comparison to vehicle,significant improvement in prepulse inhibition
